# Assay results as given in PubChem BioAssay AID1347076 (National Center for Advancing Translational Sciences (NCATS), 2019).
# About 13,000 (3.2%) of roughly 400,000 compounds were called active. This list was built around the results that the source calls inconclusive (neither active nor inactive); the mix of calls is not that of the screen. The call rests on the fitted dose curve; in most records, active means well fitted cell-killing curve with a large enough effect; inconclusive means small, poorly fitted or top-dose-only effect, or effect the other way; inactive means flat fitted curve, though single readings scatter. Where the call is inconclusive, the potency comes from a doubtful curve fit. Where a SMILES comes first, the peptide text is derived from it. [ ]: non-standard residue; d: D form. The star is where a group is joined. ξ: configuration not given here. ξY = NC(Cc1ccc(O)cc1)C(=O)O; Cbz = O=C(OCc1ccccc1)*; OtBu = CC(C)(C)O*; tBu = CC(C)(C)*
# Test: qHTS assay for MDR1-selective chemotherapeutics: Primary screen using the drug-selected MDR subline cells KB-V1; further: nearly all actives have a fitted effect of over 60% in size
# Details: KB-V1 MDR cells viability, CellTiter-Glo, 72 h; activity change, negative = cytotoxicity: at 46.1 µM (top of the series)
# Outline: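 Potencies derive from concentration-effect curves fitted to normalized luminescence (CellTiter-Glo) of KB-V1 cells treated for 72 h at 37 degrees C in phenol-red-free DMEM containing 10% FBS.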
# On the % scale 0 is the no-effect control and ±100 the full control effect; potency means the concentration at half of the fitted maximal effect.
SMILES,Potency,"activity change, negative = cytotoxicity"
CCCCCCCCN1C(=O)[C@H](CC(=O)N2CCC(c3ccccc3)CC2)C[C@@]2(C(=O)OC)CCCCC=C12,"inconclusive: 29.1 µM [cytotoxic, single point]",
C=CCn1c(COc2ccccc2F)nnc1SCC(=O)Nc1cc2oc3ccccc3c2cc1OC,"inconclusive: 14.6 µM [cytotoxic, partial curve]",
c1ccc(-c2ccc(C(c3ccccc3)n3ccnc3)cc2)cc1 (configuration not stated),"inconclusive: 14.6 µM [cytotoxic, single point]",
Oc1c(Cl)cc(Cl)c2cccnc12,,inactive: 7.71%
CC(=O)C1=C(C)NC(SCC(N)=O)=C(C#N)C1c1ccco1 (configuration not stated),"inconclusive: 20.6 µM [rising, single point]",
CCC(C(=O)Nc1cc(C)cc(C)n1)c1ccccc1 (configuration not stated),"inconclusive: 13 µM [cytotoxic, partial curve]",
CC(=O)c1sc(Nc2nc3ccc(F)cc3s2)nc1C,,inactive: -10.2%
COc1cccc(CC(=O)Nc2ccc3nc(C)sc3c2)c1,"inconclusive: 14.6 µM [cytotoxic, partial curve]",
O=C(NCc1ccccc1)C(=O)NCC1COc2ccccc2O1 (configuration not stated),active: 5.17 µM,
CC(C)CCSc1nc(N2CCOCC2)c2c(c1C#N)CC(C)(C)OC2,active: 8.2 µM,
COC(=O)c1ccccc1NC(=O)CSc1n[nH]c(C)n1,"inconclusive: 3.26 µM [rising, partial curve]",
Cc1ccc(N(C(=O)Cn2nnc(-c3ccccc3)n2)C(C(=O)NC2CCCCC2)c2ccccn2)cc1C (configuration not stated),active: 1.16 µM,
CCOC(=O)c1c(NC(=O)COc2ccccc2)sc2c1CC(C)(C)NC2(C)C,"inconclusive: 18.4 µM [cytotoxic, single point]",
CCOc1ccc(-n2c(=O)c3sccc3n(Cc3ccc(C)cc3)c2=O)cc1,,inactive: -3.86%
Cc1ccn2c(=O)cc(COc3ccc(NC(=O)C(C)(C)C)cc3)nc2c1,,inactive: 7.66%
Cc1cc(S(=O)(=O)N2CCN(CC(=O)NCCc3cccs3)CC2)ccc1Br,,inactive: -6.74%
O=c1c2sc3ccccc3c2n(Cc2cccc(C(F)(F)F)c2)c(=O)n1-c1ccccc1,,inactive: 13.5%
COc1ccccc1NS(=O)(=O)c1cccc(C(=O)N(C)Cc2cccs2)c1,"inconclusive: 11.6 µM [cytotoxic, partial curve, poor fit]",
c1ccc(C[C@H]2CN=C(Nc3ccccc3)N2CC2CCCC2)cc1,"inconclusive: 6.51 µM [cytotoxic, partial curve]",
CCOC(=O)N1CCC(N(C(=O)Nc2ccc(Cl)c(Cl)c2)C(C)CC)CC1 (configuration not stated),"inconclusive: 16.4 µM [cytotoxic, partial curve, poor fit]",
CCc1ccc(NC(=O)CN2CCCN(S(=O)(=O)c3ccc(F)cc3)CC2)cc1,"inconclusive: 5.17 µM [cytotoxic, partial curve]",
CC(C)(C)OC(=O)C(Cc1ccc(OC(C)(C)C)cc1)NC(=O)CNC(=O)OCc1ccccc1 (stereo not drawn) (Cbz-Gly-[ξY](tBu)-OtBu),active: 2.91 µM,
O=C(N/N=C/C(Cl)=C/c1ccc([N+](=O)[O-])cc1)C(=O)Nc1cccc(C(=O)O)c1,"inconclusive: 29.1 µM [cytotoxic, single point]",

SMILES,Potency,"activity change, negative = cytotoxicity"
COc1ccccc1COc1cccn2c(N(C)C(=O)CCC3CCCC3)c(C)nc12,,inactive: 5.16%
CC(=O)c1ccc(NC(=O)c2cc3c([nH]c2=O)CC(c2ccccc2)CC3=O)cc1 (configuration not stated),,inconclusive: 12.5%
O=C(CSc1nnc(CN2CCCCC2)n1-c1ccccc1)c1ccc2c(c1)OCO2,"inconclusive: 20.6 µM [cytotoxic, single point]",
COc1ccc(CNc2oc(COc3ccc(Cl)cc3)nc2C#N)cc1,"inconclusive: 16.4 µM [cytotoxic, single point]",
C/C(=N\NC(=O)COc1ccc([N+](=O)[O-])cc1)C(C)(C)C,"inconclusive: 29.1 µM [rising, single point]",
CN1C(=O)Cc2cc(S(=O)(=O)CCC(=O)Nc3ccc(Cl)cc3)ccc21,,inactive: 16.6%
Cc1cc(C)c(S(=O)(=O)N2CCCCC2CCNC(=O)C(=O)NCc2ccccn2)c(C)c1 (configuration not stated),"inconclusive: 5.8 µM [cytotoxic, full curve, poor fit]",
Cc1noc(C)c1Cn1c(C)c(C(=O)NCc2ccc3c(c2)OCCO3)sc1=O,"inconclusive: 8.2 µM [cytotoxic, partial curve]",
COc1cc(/C=N\NC(=O)c2ccc(-c3ccccc3)cc2)cc(OC)c1O,,inactive: 0%
CC1(C)CC2CC(C)(CN2C(=O)COC(=O)c2cc(Cl)cc(Cl)c2N)C1 (configuration not stated),"inconclusive: 16.4 µM [cytotoxic, partial curve, poor fit]",
CCN(CC)C(=O)c1sc2c(c1C)c(=O)n(-c1ccc(C)c(C)c1)c(=O)n2CC(=O)Nc1ccc(OC)cc1OC,"inconclusive: 14.6 µM [cytotoxic, partial curve, poor fit]",
Cc1cc(F)ccc1NC(=O)CCS(=O)(=O)c1cc2c3c(c1)CCN3C(=O)CC2,"inconclusive: 29.1 µM [rising, single point]",
CC(=O)c1ccc(NC(=O)NCc2ccc(F)cc2)cc1,"inconclusive: 20.6 µM [cytotoxic, single point]",
Cc1ccccc1OCC(=O)NCCCNC(=O)c1ccccn1,"inconclusive: 16.4 µM [cytotoxic, single point]",
CCc1nnc(NC(=O)CSc2nnc(COc3ccccc3)n2-c2ccc(C)cc2)s1,,inactive: -0.0122%
CCOC(=O)N1CCN(CC(=O)Nc2ccccc2C(=O)Nc2ccccc2)CC1,,inactive: -7.23%
O=C(Nc1ccc2ccccc2c1)Nc1nnc(C2CCCCC2)s1,"inconclusive: 14.6 µM [rising, partial curve, poor fit]",
C/C(CC(=O)Nc1cc(C)ccn1)=N\NC(=O)c1ccncc1,"inconclusive: 29.1 µM [rising, single point]",
Cc1cccc(C(O)c2cnc(C)n2Cc2ccccc2)c1 (configuration not stated),"inconclusive: 23.1 µM [cytotoxic, partial curve, poor fit]",
CN(C)CCC(c1ccc(Br)cc1)c1ccccn1 (configuration not stated),"inconclusive: 16.4 µM [cytotoxic, single point]",
CN(C)c1nc(-c2cccnc2)nc(-c2ccccc2)c1C#N,,inactive: -21.5%
CC(=O)NC12CC3CC(C1)CC(C(=O)Nc1ccc(C)c(S(=O)(=O)N4CCCCCC4)c1)(C3)C2,active: 20.6 µM,
CCC(=O)c1ccccc1OCCCN1CCC(Cc2ccccc2)CC1,"inconclusive: 29.1 µM [cytotoxic, single point]",

SMILES,Potency,"activity change, negative = cytotoxicity"
COc1cccc(OC)c1C(=O)NC(=S)N1CCN(c2ccc(C(F)(F)F)cc2[N+](=O)[O-])CC1,"inconclusive: 20.6 µM [cytotoxic, single point]",
CCS(=O)(=O)N1CC(=O)N(c2cc(C)cc(C)c2)C(C)(C(=O)NC2CCCCC2)C1 (configuration not stated),,inactive: 0.713%
O=C1C2CC=CCC2C(=O)N1Cc1nnc(-c2ccccc2Br)o1 (configuration not stated),,inactive: 10.6%
Cc1c(C(=O)NCc2ccc3c(c2)OCCO3)sc(=O)n1Cc1ccc2c(c1)OCO2,"inconclusive: 10.3 µM [cytotoxic, partial curve]",
COc1ccc([C@H]2C[C@H](O)[C@@H](n3cc(-c4ccc(F)cc4)nn3)CN2C(=O)c2cccs2)cc1,,inactive: 2.31%
Cn1nnnc1SCC(=O)Nc1ncc(Cl)cc1Cl,,inactive: 1.18%
Cc1cc([N+](=O)[O-])ccc1NCc1ccccc1,"inconclusive: 13 µM [cytotoxic, single point]",
O=C(C1CC1)N1CCc2cc(S(=O)(=O)N(CCO)Cc3ccccc3)ccc21,"inconclusive: 29.1 µM [cytotoxic, single point]",
Cn1cc(/C=C(\NC(=O)c2ccccc2Cl)C(=O)NCCCn2ccnc2)c2ccccc21,"inconclusive: 29.1 µM [rising, single point]",
COc1ccc(C(C[N+](=O)[O-])C2(c3ccc(OC)c(OC)c3)C(=O)c3ccccc3C2=O)cc1 (configuration not stated),"inconclusive: 29.1 µM [cytotoxic, single point]",
CCC1CCCCN1CCCNC(=O)C1CCCN(S(=O)(=O)N2CC(C)CC(C)C2)C1 (configuration not stated),"inconclusive: 5.8 µM [rising, partial curve]",
Cc1cc(F)ccc1NC(=O)Nc1ccc2c(c1)OCO2,"inconclusive: 9.2 µM [rising, partial curve]",
CCC(C)(C)NC(=O)C(c1cccn1C)N(Cc1ccccc1)C(=O)Cn1nnc2ccccc21 (configuration not stated),active: 2.59 µM,
COCC(C)NC(=O)c1noc2c1CCc1cc(OC)ccc1-2 (configuration not stated),active: 16.4 µM,
CCCCNC(=O)[C@@H]1CC=C[C@@H]2CCN(Cc3ccc(OC)c(OC)c3)C(=O)[C@@H]21,"inconclusive: 16.4 µM [cytotoxic, partial curve]",
C/C(=N\NC(=O)c1ccn(C)n1)c1ccc(NC(=O)c2cccc(F)c2)cc1,"inconclusive: 1.84 µM [rising, full curve]",
Cc1ccc(C)c(S(=O)(=O)N2CCN(C(=O)Cn3c(C(F)(F)F)nc4ccccc43)CC2)c1,,inactive: -7.27%
CCN(CC(=O)Nc1ccccc1C(F)(F)F)C(=O)CCS(=O)(=O)c1ccc(C)cc1,"inconclusive: 7.31 µM [cytotoxic, partial curve]",
Cn1cnnc1Sc1ccc(C(=O)NCCC(c2ccccc2)c2ccccc2)cc1[N+](=O)[O-],"inconclusive: 25.9 µM [rising, single point]",
CN1CCN(C2=C(Cl)C(=O)c3ccccc3C2=O)CC1,"inconclusive: 18.4 µM [cytotoxic, single point]",
CN(C)S(=O)(=O)NC(c1ccccc1)c1ccccc1,"inconclusive: 2.06 µM [rising, partial curve]",

# Structural class: the entries above with a cyano group (4)
SMILES,Potency,"activity change, negative = cytotoxicity"
CC(=O)C1=C(C)NC(SCC(N)=O)=C(C#N)C1c1ccco1 (configuration not stated),"inconclusive: 20.6 µM [rising, single point]",
CC(C)CCSc1nc(N2CCOCC2)c2c(c1C#N)CC(C)(C)OC2,active: 8.2 µM,
COc1ccc(CNc2oc(COc3ccc(Cl)cc3)nc2C#N)cc1,"inconclusive: 16.4 µM [cytotoxic, single point]",
CN(C)c1nc(-c2cccnc2)nc(-c2ccccc2)c1C#N,,inactive: -21.5%
